According to patent US6455537B1, “Methods for treating opiate intolerance” (priority 1999, dated 2002):

Tested on: analgesic effects of morphine
Test: Antagonism of morphine analgesia, tail flick test in rats
Conditions: therapeutic ratio; i.v. doses, rat versus dog ED84

SMILES | Ratio of the Dose Antagonizing Morphine Analgesia Divided by the Dose Protecting Animals from Morphine Induced Emesis
C[N@+]1(CC2CC2)CC[C@]23c4c5ccc(O)c4O[C@H]2C(=O)CC[C@@]3(O)[C@H]1C5 [N-methylnaltrexone] | 60
C=CC[N@@+]1(C)CC[C@]23c4c5ccc(O)c4O[C@H]2[C@@H](O)C=C[C@H]3[C@H]1C5 [R N-methylnalorphine, (5α,6α,17R)-7,8-didehydro-4,5-epoxy-3,6-dihydroxy-17-methyl-17-(2-propenyl)morphinanium chloride] | 273
C=CC[N+]1(C)CC[C@]23c4c5ccc(O)c4O[C@H]2C(=O)CC[C@@]3(O)[C@H]1C5 (stereo partly shown) [N-methylnaloxone] | 14
C=CC[N+]1(C)CC[C@]23c4c5ccc(O)c4O[C@H]2[C@@H](O)C=CC3[C@H]1C5 (stereo partly shown) [S N-methylnalorphine] | Emetic
